Source: the supplement of paper PMC12819154, “High-throughput peptide-centric local stability assay extends protein–ligand identification to membrane proteins, tissues and bacteria” (Nature Structural & Molecular Biology, 2025)
This is one part of the list. Small differences around the control level are noise.

Chains of the proteins cited; added tags and fusions are not shown. Lines headed by an entry give the natural chain unless they say otherwise; changes in a name come on top.
UniProt Q8BPB5: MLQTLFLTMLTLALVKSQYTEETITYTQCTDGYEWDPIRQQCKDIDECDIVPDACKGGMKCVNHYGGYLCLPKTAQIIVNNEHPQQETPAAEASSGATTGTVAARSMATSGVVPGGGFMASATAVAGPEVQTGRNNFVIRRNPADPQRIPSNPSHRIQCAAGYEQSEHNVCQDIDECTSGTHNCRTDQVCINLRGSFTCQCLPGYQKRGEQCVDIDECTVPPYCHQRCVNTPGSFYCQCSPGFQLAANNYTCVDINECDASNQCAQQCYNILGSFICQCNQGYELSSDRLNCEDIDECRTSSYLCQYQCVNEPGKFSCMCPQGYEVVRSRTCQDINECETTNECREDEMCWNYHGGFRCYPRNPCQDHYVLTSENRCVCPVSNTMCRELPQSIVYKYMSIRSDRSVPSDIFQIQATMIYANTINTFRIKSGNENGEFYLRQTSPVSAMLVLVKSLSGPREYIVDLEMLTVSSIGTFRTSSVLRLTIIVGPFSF
UniProt Q8BUH8: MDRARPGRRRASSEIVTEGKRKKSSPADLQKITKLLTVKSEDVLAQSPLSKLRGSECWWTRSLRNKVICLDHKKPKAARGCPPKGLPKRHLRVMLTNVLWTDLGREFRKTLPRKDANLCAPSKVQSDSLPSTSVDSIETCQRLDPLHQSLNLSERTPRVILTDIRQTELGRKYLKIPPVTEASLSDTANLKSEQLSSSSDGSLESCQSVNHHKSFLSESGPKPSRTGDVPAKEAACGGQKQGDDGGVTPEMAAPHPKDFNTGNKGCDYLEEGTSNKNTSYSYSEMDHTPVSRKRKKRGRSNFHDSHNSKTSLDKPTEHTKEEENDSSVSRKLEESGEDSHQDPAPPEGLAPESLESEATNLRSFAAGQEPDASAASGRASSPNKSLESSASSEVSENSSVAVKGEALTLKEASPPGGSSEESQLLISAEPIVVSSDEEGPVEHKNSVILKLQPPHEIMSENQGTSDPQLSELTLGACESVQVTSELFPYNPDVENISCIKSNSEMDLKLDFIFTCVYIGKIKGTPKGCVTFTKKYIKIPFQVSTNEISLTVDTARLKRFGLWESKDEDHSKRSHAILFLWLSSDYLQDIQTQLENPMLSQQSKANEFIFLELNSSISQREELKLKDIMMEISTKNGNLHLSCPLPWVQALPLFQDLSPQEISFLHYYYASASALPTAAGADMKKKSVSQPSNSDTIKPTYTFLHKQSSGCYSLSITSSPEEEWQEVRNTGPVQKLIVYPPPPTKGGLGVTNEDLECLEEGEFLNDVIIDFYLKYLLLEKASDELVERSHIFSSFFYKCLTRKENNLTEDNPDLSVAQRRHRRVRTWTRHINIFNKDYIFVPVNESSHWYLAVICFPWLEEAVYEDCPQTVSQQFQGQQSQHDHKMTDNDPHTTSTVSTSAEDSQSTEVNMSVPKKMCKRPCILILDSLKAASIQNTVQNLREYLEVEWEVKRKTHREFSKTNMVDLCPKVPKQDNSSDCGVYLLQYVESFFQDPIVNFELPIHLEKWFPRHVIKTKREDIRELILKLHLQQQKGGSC
UniProt Q8BNU0: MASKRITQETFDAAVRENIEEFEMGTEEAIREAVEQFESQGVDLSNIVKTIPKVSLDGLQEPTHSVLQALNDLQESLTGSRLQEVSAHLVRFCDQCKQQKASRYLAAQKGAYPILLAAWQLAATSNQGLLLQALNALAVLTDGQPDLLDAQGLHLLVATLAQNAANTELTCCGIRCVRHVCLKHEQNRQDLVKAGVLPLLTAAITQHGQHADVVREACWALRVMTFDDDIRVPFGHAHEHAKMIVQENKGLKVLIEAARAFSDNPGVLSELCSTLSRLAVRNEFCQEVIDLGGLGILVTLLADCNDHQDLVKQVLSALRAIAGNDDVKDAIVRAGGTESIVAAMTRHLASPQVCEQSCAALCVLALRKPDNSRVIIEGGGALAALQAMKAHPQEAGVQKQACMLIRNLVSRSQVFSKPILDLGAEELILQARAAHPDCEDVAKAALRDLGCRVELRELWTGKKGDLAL
UniProt Q8BN21: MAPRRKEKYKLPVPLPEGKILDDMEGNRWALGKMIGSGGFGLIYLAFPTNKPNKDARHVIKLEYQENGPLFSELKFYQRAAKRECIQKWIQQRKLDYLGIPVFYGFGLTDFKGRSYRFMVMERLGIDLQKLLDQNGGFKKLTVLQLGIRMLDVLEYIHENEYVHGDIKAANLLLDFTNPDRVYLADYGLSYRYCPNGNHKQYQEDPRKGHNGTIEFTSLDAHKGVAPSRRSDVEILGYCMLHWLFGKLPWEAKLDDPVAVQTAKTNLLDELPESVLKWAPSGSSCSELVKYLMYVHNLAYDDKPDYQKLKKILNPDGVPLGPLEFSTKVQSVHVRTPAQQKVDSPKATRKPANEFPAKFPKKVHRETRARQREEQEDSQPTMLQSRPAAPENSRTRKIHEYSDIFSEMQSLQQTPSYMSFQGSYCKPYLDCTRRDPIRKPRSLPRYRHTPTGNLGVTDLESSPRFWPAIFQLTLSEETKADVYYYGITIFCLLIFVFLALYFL
UniProt Q8BMA3: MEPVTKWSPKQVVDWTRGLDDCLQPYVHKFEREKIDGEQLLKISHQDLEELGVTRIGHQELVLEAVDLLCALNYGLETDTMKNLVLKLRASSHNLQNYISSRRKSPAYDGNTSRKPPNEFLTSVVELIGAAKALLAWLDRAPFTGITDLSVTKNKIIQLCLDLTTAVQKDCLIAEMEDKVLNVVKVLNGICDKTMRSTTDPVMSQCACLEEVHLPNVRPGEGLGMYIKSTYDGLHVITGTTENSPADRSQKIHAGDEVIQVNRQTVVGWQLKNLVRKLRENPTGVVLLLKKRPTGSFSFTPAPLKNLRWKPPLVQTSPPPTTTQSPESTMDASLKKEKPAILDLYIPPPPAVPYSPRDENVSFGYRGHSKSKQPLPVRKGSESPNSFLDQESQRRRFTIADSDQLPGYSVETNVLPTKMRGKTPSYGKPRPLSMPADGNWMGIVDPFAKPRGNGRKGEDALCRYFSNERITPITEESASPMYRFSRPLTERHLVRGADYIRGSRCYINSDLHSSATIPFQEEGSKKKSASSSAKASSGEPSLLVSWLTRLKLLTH
UniProt Q8BIY1: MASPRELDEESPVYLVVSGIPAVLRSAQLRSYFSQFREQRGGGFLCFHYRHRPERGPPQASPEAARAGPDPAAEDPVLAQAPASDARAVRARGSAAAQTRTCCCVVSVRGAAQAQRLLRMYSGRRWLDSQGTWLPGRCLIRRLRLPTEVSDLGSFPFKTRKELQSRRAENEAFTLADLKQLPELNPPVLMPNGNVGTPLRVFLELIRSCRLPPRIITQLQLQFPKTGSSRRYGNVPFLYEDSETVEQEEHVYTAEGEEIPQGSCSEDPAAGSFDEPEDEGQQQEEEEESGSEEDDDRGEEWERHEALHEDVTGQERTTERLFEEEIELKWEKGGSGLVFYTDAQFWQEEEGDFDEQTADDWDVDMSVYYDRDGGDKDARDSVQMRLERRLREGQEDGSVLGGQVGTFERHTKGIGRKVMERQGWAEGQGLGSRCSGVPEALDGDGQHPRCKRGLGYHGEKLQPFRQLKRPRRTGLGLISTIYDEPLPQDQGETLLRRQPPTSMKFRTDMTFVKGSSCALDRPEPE
UniProt Q8BTZ7: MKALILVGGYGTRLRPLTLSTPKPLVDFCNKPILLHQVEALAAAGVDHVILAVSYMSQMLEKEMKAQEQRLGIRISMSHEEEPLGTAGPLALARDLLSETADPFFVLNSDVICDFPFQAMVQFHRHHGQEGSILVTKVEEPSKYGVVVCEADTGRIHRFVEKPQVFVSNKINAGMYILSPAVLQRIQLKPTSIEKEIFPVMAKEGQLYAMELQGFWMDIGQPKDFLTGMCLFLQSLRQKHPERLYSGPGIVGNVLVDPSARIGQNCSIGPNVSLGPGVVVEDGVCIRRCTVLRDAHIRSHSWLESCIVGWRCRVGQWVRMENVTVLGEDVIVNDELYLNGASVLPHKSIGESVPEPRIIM
UniProt Q8BJU0: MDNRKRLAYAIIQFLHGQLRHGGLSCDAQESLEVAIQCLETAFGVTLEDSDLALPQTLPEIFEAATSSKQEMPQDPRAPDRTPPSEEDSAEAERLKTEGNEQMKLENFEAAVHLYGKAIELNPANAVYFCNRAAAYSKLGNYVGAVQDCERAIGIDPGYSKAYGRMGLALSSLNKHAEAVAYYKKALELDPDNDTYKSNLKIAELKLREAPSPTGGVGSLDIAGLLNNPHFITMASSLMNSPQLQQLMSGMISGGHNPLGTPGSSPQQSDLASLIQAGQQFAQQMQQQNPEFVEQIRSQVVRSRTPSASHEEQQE
UniProt Q8BMK0: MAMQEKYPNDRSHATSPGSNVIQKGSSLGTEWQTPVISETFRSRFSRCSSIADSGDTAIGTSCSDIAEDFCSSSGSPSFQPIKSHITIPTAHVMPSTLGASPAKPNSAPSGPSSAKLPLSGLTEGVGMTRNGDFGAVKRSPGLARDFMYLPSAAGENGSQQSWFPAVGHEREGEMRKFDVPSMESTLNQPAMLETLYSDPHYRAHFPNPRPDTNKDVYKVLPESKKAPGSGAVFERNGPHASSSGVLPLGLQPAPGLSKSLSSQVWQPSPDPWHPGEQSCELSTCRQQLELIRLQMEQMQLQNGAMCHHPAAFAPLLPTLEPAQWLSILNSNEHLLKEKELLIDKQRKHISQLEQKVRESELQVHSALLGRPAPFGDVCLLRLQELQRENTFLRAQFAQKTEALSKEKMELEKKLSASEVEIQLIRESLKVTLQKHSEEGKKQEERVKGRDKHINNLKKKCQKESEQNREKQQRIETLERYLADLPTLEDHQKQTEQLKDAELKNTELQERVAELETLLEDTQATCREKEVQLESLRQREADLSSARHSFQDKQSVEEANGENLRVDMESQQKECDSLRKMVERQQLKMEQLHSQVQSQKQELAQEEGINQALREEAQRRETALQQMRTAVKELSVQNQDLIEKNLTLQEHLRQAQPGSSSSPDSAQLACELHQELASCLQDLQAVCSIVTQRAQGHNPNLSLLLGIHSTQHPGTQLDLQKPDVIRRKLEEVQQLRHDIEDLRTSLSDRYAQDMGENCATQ
UniProt Q8BIG4: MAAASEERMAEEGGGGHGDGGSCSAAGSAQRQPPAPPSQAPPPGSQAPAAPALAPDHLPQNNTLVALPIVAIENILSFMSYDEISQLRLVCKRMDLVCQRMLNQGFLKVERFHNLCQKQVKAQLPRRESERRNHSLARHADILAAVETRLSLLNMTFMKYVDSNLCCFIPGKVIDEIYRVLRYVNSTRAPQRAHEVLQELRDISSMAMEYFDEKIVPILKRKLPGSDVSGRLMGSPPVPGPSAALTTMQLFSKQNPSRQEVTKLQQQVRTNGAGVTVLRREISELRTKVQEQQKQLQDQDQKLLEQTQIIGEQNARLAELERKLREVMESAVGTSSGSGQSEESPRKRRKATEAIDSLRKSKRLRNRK
UniProt Q8BTY8: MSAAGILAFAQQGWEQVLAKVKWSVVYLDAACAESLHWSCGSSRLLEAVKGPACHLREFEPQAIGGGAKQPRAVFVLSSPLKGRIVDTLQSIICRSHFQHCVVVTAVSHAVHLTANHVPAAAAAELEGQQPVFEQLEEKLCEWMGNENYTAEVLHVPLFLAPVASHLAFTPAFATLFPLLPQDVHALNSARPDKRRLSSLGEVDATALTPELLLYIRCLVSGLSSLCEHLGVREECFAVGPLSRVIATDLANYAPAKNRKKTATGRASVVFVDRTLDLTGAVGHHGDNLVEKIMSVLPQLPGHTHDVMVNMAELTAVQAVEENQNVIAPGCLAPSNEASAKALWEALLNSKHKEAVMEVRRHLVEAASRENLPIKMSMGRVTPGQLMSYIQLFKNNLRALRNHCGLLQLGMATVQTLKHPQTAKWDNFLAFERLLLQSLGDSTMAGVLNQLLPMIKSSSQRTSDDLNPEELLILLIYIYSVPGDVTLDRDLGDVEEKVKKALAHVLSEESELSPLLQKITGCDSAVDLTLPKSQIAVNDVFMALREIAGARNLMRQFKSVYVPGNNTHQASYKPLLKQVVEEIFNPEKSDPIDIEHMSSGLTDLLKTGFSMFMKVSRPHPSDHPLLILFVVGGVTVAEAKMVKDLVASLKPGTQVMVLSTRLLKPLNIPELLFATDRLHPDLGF

Compound: CN[C@@H]1C[C@H]2O[C@@](C)([C@@H]1OC)n1c3ccccc3c3c4c(c5c6ccccc6n2c5c31)C(=O)NC4 [staurosporine]
Test: log2 fold change of tryptic peptide abundance, ligand vs vehicle (limited proteolysis) (log2 ratio); higher = more trypsin-susceptible (destabilized)
Conditions: ligand concentration: 20 uM; sample: mouse liver crude lysate; replicate design: treated separately

| Target | log2 fold change |
| --- | --- |
| UniProt Q8BPB5 (peptide sequence: NPADPQRIPSNPSHR, peptide start residue: 142) | 0.253 |
| UniProt Q8BUH8 (peptide sequence: LDPLHQSLNLSER, peptide start residue: 143) | 0.369 |
| UniProt Q8BNU0 (peptide sequence: HVCLKHEQNRQDLVK, peptide start residue: 179) | 1.01 |
| UniProt Q8BN21 (peptide sequence: YKLPVPLPEGK, peptide start residue: 9) | -0.27 |
| UniProt Q8BMA3 (peptide sequence: LRENPTGVVLLLK, peptide start residue: 278) | 0.34 |
| UniProt Q8BIY1 (peptide sequence: QGWAEGQGLGSR, peptide start residue: 422) | 0.548 |
| UniProt Q8BTZ7 (peptide sequence: IQLKPTSIEKEIFPVMAK, peptide start residue: 186) | -0.439 |
| UniProt Q8BJU0 (peptide sequence: KALELDPDNDTYKSNLK, peptide start residue: 185) | 0.479 |
| UniProt Q8BMK0 (peptide sequence: SHATSPGSNVIQK, peptide start residue: 12) | -0.399 |
| UniProt Q8BIG4 (peptide sequence: KATEAIDSLR, peptide start residue: 350) | 0.628 |
| UniProt Q8BTY8 (peptide sequence: SVYVPGNNTHQASYKPLLK, peptide start residue: 559) | 0.264 |
